Reference: PubChem BioAssay (NCATS)
Inconclusive results, whose numbers are uncertain, are shown with a selection of clear calls. Where the call is inconclusive, the potency comes from a doubtful curve fit. The source made the active and inactive calls. Calls follow the shape of the dose curve; as a rule, active = well fitted activation curve with a large enough effect; inconclusive = small, poorly fitted or top-dose-only effect, or another doubt; inactive = no such curve, though single readings can be large or run the other way.

Molecular target: Rap guanine nucleotide exchange factor 3 (Homo sapiens) (UniProt O95398)
Assay: Counterscreen qHTS for agonist of cAMP-regulated guanine nucleotide exchange factor 3 (EPAC1) (AID 1645889); also: nearly all actives have a fitted effect of over 40% in size; as to activation: % of control where 0% means no effect
Conditions: EPAC1 Rap1B-BODIPY-GDP exchange, fluorescence; activation: at 154 µM (top of the series) unless noted
Method in brief: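 Rap1B–BODIPY-GDP (250 nM) with 50 uM GDP; compounds pin-transferred to 9.74 nM–152 uM final (activator) or from 7.32 nM upwards (inhibitor). Fluorescence Ex/Em 480/540 nm read at 5 and 30 min, then after adding cAMP or buffer, at room temperature.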
Potency is read from the fitted curve at half-maximal effect.

| Compound | activation | Potency |
| --- | --- | --- |
| COCC(=O)Oc1c(Sc2ccc(C)cc2)c(C)nn1C(C)(C)C | inconclusive: 26.8% [activator] | – |
| O=C(O)c1cc(N/N=C/c2ccncc2)ccc1Cl | inactive: 24.2% [at 30.8 µM] | – |
| CN(C(=O)c1cc(-c2ccccc2)on1)C1CCCCC1 | inconclusive: 50.8% [activator] [at 30.8 µM] | – |
| COc1ccc(OC)c(NC(=O)CN(C)CCOc2ccc(Br)cc2)c1 | – | inconclusive: 0.01 µM [activator, full curve, poor fit] |
| CCCCN1C(=O)C(O)(c2c[nH]c3ccccc23)c2cc(Br)ccc21 (stereo not drawn) | – | inactive |
| COc1cnc(-c2ccccn2)nc1Oc1cccc(Cl)c1 | – | inconclusive: 3.55 µM [activator, full curve, poor fit] |
| O=C(c1ccccc1)N1CCN(CCc2ccccn2)CC1 | inconclusive: 63.7% [activator] | – |
| CCOc1ccccc1NC(=O)COC(=O)c1ccc(S(=O)(=O)N2CCCC2)cc1 | – | inactive |
